In this assay the test system is LNCaP cells. As to the kind of experiment: In vitro LNCaP cell proliferation inhibition test (CellTiter-Glo). Format: cell-based. Particulars: Homo sapiens, 6 days, read-out: Anti-proliferative activity IC50. Here is the method:
LNCaP cells were cultured in RPMI-1640 medium supplemented with 10% fetal bovine serum (FBS) at 37° C. with 5% CO2. The cells were then digested with trypsin and counted using an automated cell counter to determine cell density. The cell suspension was diluted to the desired density in growth medium. Subsequently, 100 μL of the cell suspension was seeded into 96-well plates and incubated at 37° C. with 5% CO2 for 24 hours. 10 μL of drug solution (including 3-fold serial dilutions of compounds or DMSO) was added to each well, and the plates were incubated at 37° C. with 5% CO2 for 6 days. Prior to measurement, the assay plates were equilibrated to room temperature. 40 μL of CellTiter-Glo® reagent was added to each well. The plates were mixed on an orbital shaker for 2 minutes to induce cell lysis. After incubation at room temperature for 60 minutes to stabilize the luminescence signal, the plates were read on an Envision plate reader.
On the technique in general: ATP-based viability assays read luminescence as a measure of living cells.

A word on the IC50: it is the concentration that gives 50% inhibition. As for `CNC(=O)c1ccc(N2C(=S)N(c3ccc(C#N)c(C(F)(F)F)c3)C(=O)C2(C)C)cc1F` [Enzalutamide, enzalutamide, reference compound], the IC50 stood at 461 nM.

These data come from patent US20250073249A1, “STEROID COMPOUND, AND PREPARATION METHOD THEREFOR AND USE THEREOF” (SHANGHAI INSTITUTE OF MATERIA MEDICA, CHINESE ACADEMY OF …, priority 2022, published 2025).
